Some results were stated once for a whole list of compounds, not compound by compound. At least one compound was matched to its structure with a doubt left.
Test system: ED43-virus
Format: cell-based, hepatitis C virus genotype 4a
Conditions: 8×EC50

Compound | viral escape / viral spread under treatment
C=C[C@@H]1C[C@]1(NC(=O)[C@@H]1C[C@@H]2CN1C(=O)[C@H](C(C)(C)C)NC(=O)O[C@@H]1C[C@H]1CCCCCc1nc3ccc(OC)cc3nc1O2)C(=O)NS(=O)(=O)C1CC1.O [grazoprevir] | > 53 days
CC(C)(C)[C@@H]1NC(=O)O[C@@H]2CCC[C@H]2OC/C=C/C(F)(F)c2nc3ccccc3nc2O[C@@H]2C[C@@H](C(=O)N[C@]3(C(=O)NS(=O)(=O)C4(C)CC4)C[C@H]3C(F)F)N(C2)C1=O [glecaprevir] | > 53 days

Source: US20240327801A1, “EFFICIENT CELL CULTURE SYSTEM FOR HEPATITIS C VIRUS GENOTYPE 4a” (Hvidovre Hospital, priority 2021, published 2024)
